# Data taken from article PMC11059309.
# By UniProt entry, the sequences of proteins in these tests, tags left out.
# UniProt P08908: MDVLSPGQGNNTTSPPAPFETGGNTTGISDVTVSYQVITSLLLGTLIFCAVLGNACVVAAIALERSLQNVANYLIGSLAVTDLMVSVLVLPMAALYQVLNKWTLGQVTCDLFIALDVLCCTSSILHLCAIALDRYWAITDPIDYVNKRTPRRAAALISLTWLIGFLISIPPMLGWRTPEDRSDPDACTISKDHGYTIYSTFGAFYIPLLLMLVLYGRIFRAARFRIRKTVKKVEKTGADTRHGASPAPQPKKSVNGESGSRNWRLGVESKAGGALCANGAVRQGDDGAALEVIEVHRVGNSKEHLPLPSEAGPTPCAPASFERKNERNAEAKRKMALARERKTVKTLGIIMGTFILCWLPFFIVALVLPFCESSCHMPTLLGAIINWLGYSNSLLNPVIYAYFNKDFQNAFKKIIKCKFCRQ
# UniProt P32121: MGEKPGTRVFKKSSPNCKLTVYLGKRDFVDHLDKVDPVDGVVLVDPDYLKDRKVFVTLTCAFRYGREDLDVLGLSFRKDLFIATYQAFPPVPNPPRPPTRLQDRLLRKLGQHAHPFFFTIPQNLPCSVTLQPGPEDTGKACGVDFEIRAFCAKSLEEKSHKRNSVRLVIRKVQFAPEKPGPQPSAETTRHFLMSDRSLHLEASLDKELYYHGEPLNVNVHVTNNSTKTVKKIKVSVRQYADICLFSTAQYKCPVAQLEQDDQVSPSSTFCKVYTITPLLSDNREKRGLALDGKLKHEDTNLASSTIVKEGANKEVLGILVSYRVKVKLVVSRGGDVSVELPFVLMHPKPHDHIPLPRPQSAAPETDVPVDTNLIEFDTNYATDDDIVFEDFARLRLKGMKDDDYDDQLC
# No constants are given. Whether binding was seen depends on the method and setting. In cells and extracts the contact can be indirect. Some binding calls cover weakened binding; strength is not graded here.
# Molecular target: 5-HT1A receptor (serotonin 1A receptor) (UniProt P08908)
# Assay: split reporter; NanoBiT β-arrestin 2 recruitment in living HEK 293 cells transiently transfected with 5HT1a-LgBiT and SmBiT-β-Arrestin2; HBSS/HEPES with 2.5 µM coelenterazine h, reader at 30 °C; stimulation with 5.0 µM serotonin, luminescence for 60 min, AUC relative to vehicle-treated control; cells pretreated 48 h or 72 h with water soluble cholesterol (7.0 µM), Ze 117 (25.0 µg/ml), simvastatin (1.0 µM), dexamethasone (1.0 µM) or dexamethasone + Ze 117
substance,measurement,value
β-arrestin 2 (from UniProt P32121 1-409),binding,binds
